Results from patent US20060135432A1, “Agonists and antagonists of conadotropin-releasing hormone-2, and use thereof” (priority 2002, published 2006).
At least one peptide structure holds a part that was inferred or is arguable (an end, a ring closure or a residue).

Tested on: TSU-Pri cells
Experiment: Binding of radiolabeled GnRH to TSU-Pri prostate cancer cells
Set-up: species or system human
Details: room temperature, 6 hours
Protocol: TSU-Pri, which is one of the prostate cancer cell lines, was cultured along with the radiolabeled I^125GnRH-1 and I^125GnRH-2. […] The radiolabeled GnRH and the cells were cultured at room temperature for 6 hours, and then washed with PBS (phosphate-buffered saline) several times to eliminate the unbound GnRH. Thereafter, the cells were isolated and radioactivity from the cells was measured using a y-counter.

## CC(C)C[C@H](NC(=O)CNC(=O)[C@H](Cc1ccc(O)cc1)NC(=O)[C@H](CO)NC(=O)[C@H](Cc1c[nH]c2ccccc12)NC(=O)[C@H](Cc1c[nH]cn1)NC(=O)[C@@H]1CCC(=O)N1)C(=O)N[C@@H](CCCNC(=N)N)C(=O)N1CCC[C@H]1C(=O)NCC(N)=O [GnRH-1]
  effect of unradiolabeled competitor on binding of radiolabeled GnRH-2 to TSU-Pri cells: the binding was not reduced
